The values that follow come from paper PMC11234268.

Protein sequences, listed by entry. Tags and fused reporters are not part of them.
UniProt P48165: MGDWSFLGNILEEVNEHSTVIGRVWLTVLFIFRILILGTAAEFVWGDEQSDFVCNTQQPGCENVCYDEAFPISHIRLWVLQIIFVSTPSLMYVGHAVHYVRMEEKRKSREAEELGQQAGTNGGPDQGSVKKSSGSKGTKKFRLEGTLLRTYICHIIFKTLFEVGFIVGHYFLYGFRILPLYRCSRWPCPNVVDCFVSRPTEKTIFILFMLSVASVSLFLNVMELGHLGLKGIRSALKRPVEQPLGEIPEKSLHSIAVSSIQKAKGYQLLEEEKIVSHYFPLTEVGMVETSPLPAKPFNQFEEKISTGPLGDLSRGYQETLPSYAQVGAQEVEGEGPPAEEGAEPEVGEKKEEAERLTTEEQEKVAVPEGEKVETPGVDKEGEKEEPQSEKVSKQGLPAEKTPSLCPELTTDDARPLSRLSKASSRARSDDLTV
UniProt Q676U5: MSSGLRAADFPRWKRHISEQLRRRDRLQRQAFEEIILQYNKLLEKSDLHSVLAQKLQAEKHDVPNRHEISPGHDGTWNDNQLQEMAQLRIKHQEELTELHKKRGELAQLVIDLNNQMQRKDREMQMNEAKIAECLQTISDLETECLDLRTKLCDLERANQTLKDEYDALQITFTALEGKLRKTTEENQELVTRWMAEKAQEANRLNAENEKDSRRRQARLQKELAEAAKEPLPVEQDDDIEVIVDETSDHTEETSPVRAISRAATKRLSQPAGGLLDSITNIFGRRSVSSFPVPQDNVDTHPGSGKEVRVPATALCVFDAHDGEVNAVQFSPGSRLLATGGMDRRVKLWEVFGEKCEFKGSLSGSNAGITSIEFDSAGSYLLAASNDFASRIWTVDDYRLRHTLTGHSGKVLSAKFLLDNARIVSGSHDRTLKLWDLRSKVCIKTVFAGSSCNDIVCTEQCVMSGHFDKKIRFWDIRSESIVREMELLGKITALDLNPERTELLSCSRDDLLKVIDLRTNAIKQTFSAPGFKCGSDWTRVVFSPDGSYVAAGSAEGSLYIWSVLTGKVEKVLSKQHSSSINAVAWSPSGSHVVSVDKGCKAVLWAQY

For test [1], the target named is CX50 (connexin 50), endogenous (human (endogenous in HLE cells)) (UniProt P48165). Kind of test: co-IP; endogenous proteins in HLE cells; RIPA lysate, antibody 4 h at 4 °C, protein A/G magnetic beads overnight, Western blot. On the technique in general: A western blot detects proteins with antibodies after separation by electrophoresis.
The target of test [2] is HA-tagged full-length ATG16L1 (UniProt Q676U5). Kind of test: co-IP; HEK293 cells transfected with ATG16L1-HA and gigaxonin-Flag with increasing amounts of CX50-GFP (24 h), or treated with DMSO or riboflavin for a further 24 h; ATG16L1-HA precipitated by anti-HA / HA affinity gels, Western blot.
Test [3] concerns the target Flag-tagged CX50 (connexin 50) (UniProt P48165). Kind of test: co-IP; HEK293T cells co-transfected with Flag-CX50 and HA-ATG16L1 (full length or deletion constructs); RIPA lysate, antibody 4 h at 4 °C, protein A/G magnetic beads overnight, Western blot.

No constants are given. Whether binding was seen depends on the method and setting. In cells and extracts the contact can be indirect. Some binding calls cover weakened binding; strength is not graded here. For some of these results: Sequences can lack the tags named with a protein.

Regarding “ATG16L1, endogenous (from UniProt Q676U5 1-607)”, the binding entry in test [1] was “binds”. For the molecule CX50-GFP (from UniProt P48165 1-433), the binding result in test [2] is given as “binds”. For “HA-tagged full-length ATG16L1 (from UniProt Q676U5 1-607)”, in test [3], the binding result is “binds”.

B1: gigaxonin-Flag (E3 ubiquitin ligase gigaxonin) (protein, UniProt Q9H2C0 1-597)
chain: MAEGSAVSDPQHAARLLRALSSFREESRFCDAHLVLDGEEIPVQKNILAAASPYIRTKLNYNPPKDDGSTYKIELEGISVMVMREILDYIFSGQIRLNEDTIQDVVQAADLLLLTDLKTLCCEFLEGCIAAENCIGIRDFALHYCLHHVHYLATEYLETHFRDVSSTEEFLELSPQKLKEVISLEKLNVGNERYVFEAVIRWIAHDTEIRKVHMKDVMSALWVSGLDSSYLREQMLNEPLVREIVKECSNIPLSQPQQGEAMLANFKPRGYSECIVTVGGEERVSRKPTAAMRCMCPLYDPNRQLWIELAPLSMPRINHGVLSAEGFLFVFGGQDENKQTLSSGEKYDPDANTWTALPPMNEARHNFGIVEIDGMLYILGGEDGEKELISMECYDIYSKTWTKQPDLTMVRKIGCYAAMKKKIYAMGGGSYGKLFESVECYDPRTQQWTAICPLKERRFGAVACGVAMELYVFGGVRSREDAQGSEMVTCKSEFYHDEFKRWIYLNDQNLCIPASSSFVYGAVPIGASIYVIGDLDTGTNYDYVREFKRSTGTWHHTKPLLPSDLRRTGCAALRIANCKLFRLQLQQGLFRIRVHSP
B1: the binding entry in test [2] is “binds”.
